Data reported in PMC13546301.
These are yes or no findings as the source states them, for the method shown. Some entries that bind do so weakly or less than the wild type.

Sequences of proteins named here, by UniProt entry; tags and fusion partners are left off. Residues count along the entry.
UniProt Q9CS84, residues 31-1514: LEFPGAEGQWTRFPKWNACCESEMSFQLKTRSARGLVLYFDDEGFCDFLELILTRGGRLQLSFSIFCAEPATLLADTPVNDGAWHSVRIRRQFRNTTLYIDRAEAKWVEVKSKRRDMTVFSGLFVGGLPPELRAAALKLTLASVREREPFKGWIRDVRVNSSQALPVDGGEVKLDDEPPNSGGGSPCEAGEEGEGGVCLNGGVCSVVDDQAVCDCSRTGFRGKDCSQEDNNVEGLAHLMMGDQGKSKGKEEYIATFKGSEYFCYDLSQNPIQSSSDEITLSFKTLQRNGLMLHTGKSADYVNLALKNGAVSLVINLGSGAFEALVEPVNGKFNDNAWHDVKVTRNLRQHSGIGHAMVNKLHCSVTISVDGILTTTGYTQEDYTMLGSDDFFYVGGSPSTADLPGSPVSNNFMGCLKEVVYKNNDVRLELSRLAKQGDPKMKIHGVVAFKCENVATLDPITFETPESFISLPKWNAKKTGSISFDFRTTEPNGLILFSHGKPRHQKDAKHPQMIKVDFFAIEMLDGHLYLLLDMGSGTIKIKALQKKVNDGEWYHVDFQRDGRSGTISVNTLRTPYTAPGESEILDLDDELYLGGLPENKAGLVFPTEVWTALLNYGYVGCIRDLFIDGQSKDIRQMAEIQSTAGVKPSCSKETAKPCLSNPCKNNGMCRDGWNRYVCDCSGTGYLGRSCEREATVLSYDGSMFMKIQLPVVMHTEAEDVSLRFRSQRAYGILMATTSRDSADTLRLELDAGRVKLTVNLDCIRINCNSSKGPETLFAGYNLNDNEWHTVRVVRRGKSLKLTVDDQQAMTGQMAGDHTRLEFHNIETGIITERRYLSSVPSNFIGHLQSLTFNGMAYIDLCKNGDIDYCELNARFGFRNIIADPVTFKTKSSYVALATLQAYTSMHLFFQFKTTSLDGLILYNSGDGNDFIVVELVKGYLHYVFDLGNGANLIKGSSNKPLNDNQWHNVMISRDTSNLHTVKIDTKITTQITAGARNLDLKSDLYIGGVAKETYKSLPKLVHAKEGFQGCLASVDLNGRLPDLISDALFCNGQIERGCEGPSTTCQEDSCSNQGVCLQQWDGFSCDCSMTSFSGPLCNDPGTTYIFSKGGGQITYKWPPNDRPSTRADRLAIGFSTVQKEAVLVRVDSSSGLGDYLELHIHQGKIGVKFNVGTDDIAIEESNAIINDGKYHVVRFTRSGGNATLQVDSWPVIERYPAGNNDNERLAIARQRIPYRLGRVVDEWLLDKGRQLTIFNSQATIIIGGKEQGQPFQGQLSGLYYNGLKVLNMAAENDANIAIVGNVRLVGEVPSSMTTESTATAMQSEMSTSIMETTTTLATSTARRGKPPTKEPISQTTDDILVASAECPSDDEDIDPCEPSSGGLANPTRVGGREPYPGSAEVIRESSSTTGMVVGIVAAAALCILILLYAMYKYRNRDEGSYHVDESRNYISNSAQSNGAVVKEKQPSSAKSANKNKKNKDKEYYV
UniProt Q64487, residues 21-1912: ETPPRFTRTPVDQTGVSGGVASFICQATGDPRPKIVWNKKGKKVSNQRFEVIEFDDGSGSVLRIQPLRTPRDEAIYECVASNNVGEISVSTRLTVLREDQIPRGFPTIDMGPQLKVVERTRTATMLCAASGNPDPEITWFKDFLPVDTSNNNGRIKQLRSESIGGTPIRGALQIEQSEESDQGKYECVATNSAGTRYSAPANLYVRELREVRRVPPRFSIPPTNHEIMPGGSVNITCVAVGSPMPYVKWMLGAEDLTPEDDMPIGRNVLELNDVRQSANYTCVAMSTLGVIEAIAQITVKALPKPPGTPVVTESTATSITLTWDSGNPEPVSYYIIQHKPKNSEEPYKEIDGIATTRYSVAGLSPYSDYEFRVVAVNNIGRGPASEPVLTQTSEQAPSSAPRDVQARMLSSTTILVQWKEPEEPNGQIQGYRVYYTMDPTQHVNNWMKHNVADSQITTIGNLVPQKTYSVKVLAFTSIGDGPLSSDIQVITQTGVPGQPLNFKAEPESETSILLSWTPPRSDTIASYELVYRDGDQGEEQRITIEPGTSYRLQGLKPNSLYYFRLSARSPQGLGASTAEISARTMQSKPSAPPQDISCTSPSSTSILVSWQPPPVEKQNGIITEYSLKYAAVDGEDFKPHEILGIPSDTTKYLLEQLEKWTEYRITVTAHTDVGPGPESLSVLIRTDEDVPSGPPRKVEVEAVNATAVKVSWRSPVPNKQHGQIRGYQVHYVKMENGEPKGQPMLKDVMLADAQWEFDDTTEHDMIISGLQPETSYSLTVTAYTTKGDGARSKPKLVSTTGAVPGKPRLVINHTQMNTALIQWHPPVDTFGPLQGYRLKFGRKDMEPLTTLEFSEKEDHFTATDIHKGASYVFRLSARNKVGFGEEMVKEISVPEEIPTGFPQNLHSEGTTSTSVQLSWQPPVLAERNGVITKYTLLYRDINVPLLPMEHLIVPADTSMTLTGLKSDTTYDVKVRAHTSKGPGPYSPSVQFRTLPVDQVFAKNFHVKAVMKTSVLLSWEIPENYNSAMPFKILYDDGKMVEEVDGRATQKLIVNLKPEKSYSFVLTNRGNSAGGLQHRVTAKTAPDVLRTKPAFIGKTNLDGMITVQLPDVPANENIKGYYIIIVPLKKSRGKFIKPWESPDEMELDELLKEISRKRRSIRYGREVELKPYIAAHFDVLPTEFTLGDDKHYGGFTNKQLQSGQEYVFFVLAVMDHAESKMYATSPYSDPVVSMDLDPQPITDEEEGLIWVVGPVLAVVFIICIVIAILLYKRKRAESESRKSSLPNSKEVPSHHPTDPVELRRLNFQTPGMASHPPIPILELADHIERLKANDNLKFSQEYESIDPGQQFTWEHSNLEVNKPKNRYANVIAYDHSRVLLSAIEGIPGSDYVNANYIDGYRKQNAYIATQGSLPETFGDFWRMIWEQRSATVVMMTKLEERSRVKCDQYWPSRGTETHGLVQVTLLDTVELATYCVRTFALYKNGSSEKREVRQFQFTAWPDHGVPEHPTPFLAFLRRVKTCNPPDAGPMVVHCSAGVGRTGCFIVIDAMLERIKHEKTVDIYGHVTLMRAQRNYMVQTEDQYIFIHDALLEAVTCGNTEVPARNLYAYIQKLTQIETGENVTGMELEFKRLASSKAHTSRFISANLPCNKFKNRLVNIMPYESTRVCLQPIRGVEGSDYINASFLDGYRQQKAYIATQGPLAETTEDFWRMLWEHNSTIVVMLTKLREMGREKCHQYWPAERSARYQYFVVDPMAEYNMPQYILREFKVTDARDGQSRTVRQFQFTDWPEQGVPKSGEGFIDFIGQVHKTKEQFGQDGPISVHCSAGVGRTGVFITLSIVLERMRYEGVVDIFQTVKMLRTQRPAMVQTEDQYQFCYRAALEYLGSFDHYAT
UniProt B0V2N1, residues 30-1907: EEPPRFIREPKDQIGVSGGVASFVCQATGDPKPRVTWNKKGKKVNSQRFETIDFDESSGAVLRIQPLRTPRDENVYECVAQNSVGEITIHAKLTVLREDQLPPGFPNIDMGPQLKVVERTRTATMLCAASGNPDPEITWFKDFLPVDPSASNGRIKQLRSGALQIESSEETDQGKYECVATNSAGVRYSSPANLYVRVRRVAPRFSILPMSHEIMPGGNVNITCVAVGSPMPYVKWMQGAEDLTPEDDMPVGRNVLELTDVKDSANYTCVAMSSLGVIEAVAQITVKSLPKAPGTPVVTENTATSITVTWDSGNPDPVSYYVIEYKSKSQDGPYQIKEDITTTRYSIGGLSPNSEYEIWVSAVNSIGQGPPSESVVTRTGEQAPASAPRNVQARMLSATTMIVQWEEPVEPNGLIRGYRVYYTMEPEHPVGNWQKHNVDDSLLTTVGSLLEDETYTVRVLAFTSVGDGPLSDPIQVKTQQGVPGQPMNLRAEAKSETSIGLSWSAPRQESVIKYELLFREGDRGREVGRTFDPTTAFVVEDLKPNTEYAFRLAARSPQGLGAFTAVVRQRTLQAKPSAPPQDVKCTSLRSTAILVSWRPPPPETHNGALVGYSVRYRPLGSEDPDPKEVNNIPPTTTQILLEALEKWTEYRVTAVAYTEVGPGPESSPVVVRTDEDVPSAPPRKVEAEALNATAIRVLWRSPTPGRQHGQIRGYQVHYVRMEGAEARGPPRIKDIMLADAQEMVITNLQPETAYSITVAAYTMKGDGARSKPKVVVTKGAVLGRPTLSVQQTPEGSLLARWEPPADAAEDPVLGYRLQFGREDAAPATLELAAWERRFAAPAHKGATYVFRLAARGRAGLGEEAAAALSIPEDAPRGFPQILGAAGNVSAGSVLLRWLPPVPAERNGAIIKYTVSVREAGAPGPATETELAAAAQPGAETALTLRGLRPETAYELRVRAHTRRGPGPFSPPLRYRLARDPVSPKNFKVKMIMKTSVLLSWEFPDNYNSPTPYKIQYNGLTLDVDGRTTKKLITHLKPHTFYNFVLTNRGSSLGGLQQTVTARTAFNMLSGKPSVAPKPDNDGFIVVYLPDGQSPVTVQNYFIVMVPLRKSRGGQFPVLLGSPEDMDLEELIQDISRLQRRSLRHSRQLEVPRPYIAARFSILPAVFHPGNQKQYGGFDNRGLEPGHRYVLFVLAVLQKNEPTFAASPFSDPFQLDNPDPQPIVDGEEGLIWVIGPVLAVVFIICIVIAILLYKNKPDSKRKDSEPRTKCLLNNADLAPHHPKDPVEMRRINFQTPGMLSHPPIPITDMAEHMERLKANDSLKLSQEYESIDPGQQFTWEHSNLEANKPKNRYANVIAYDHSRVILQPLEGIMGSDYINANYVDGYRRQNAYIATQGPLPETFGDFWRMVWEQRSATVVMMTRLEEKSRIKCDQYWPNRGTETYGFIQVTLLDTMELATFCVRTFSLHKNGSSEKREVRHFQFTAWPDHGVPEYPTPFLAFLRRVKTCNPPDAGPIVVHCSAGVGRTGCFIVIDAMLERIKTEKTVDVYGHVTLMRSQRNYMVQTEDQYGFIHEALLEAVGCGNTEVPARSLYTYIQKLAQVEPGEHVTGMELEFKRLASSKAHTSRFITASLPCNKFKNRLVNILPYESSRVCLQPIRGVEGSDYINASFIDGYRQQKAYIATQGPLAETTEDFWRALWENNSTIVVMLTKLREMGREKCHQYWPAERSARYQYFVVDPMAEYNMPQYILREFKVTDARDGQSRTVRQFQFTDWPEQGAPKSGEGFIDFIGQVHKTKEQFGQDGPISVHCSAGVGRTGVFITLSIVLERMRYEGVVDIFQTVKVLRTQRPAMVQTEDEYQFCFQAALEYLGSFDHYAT

What was measured:
Assay in all cases: native gel or EMSA; csBN-MS complexome profiling (cryo-slicing blue native gel, 359 slices, quantitative MS) of CL-47-solubilised ER-enriched membrane fractions of adult mouse brain
[1] = target: Neurexin-1-alpha (mouse (endogenous in mouse brain)) (UniProt Q9CS84)
[2] = target: Receptor-type tyrosine-protein phosphatase D (mouse (endogenous in mouse brain)) (UniProt Q64487)
[3] = target: Receptor-type tyrosine-protein phosphatase S (mouse (endogenous in mouse brain)) (UniProt B0V2N1)

Measured: binding

B1: Transmembrane protein 178A (protein, UniProt Q9CZ16 26-297)
chain: IFTDHWYETDPRRHKESCERSRAGADPPDQKNRLMPLSHLPLRDSPPLGRRLLPGGPGRSDPESWRSLLGLGGLDAECGRPLFATYSGLWRKCYFLGIDRDIDTLILKGIAQRCTAIKYHFSQPIRLRNIPFNLTKTIQQDEWHLLHLRRITAGFLGMAVAVLLCGCIVATVSFFWEESLTQHVAGLLFLMTGIFCTISLCTYAASVSYDLNRVPKLIYSLPHDVEHGYSWSIFCAWCSLGFIVAAGGLCIAYPFISRTKIAHLKSGRDSTV
binds: [1] | [2] | [3]
